According to PubChem BioAssay AID504834 (National Center for Advancing Translational Sciences (NCATS), 2011):
About 22,000 (6.9%) of roughly 320,000 compounds were called active. The inconclusive results got no clear call from the source; some entries with a clear call stand among them for comparison. The call rests on the fitted dose curve; in most records, active means well fitted inhibition curve with a large enough effect; inconclusive means small, poorly fitted or top-dose-only effect, or another doubt; inactive means no such curve, though single readings can be large or run the other way. Potencies of inconclusive entries are doubtful fits and often do not repeat. Where a SMILES comes first, the peptide text is derived from it. The star is where a group is joined. Cbz = O=C(OCc1ccccc1)*

Test: Primary qHTS for delayed death inhibitors of the malarial parasite plastid, 96 hour incubation
Details: P. falciparum luciferase reporter growth; series mostly up to 28.7 µM; activity change, negative = inhibition: at the top concentration
In short: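 Cell-based qHTS: luciferase-tagged P. falciparum in erythrocytes (2% hematocrit, 0.05% parasitemia final) incubated with compounds for 96 hours, 37 C, 5% CO2; luciferase detection reagent then added and luminescence measured.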
On the % scale 0 is the no-effect control and ±100 the full control effect; potency means the concentration at half of the fitted maximal effect.

SMILES | Potency | activity change, negative = inhibition
CN(Cc1ccccc1)C(=O)c1ccccc1N(C)S(=O)(=O)c1ccccc1 | inconclusive: 13.1 µM [inhibitor, single point] | 
CC1CCN(S(=O)(=O)c2cn(CC(=O)N3CC(C)CC(C)C3)c(=O)c3ccccc23)CC1 (stereo not given) | inconclusive: 11.7 µM [inhibitor, partial curve, poor fit] | 
CC1CCCN(C(=O)CSc2nnc(-c3c[nH]c4ccccc34)o2)C1 (stereo not given) | inconclusive: 18.5 µM [inhibitor, single point] | 
O=C1N=C(N2CCc3ccccc3C2)S/C1=C\c1cccc(O)c1 | inconclusive: 14.7 µM [inhibitor, single point] | 
COc1ccc(OC)c(CNc2c(C=O)c(=O)[nH]c3ccccc23)c1 | inconclusive: 11.7 µM [inhibitor, single point] | 
COc1ccc(S(=O)(=O)n2cccc2)cc1OC |  | inactive: -0.937%
O=C(Nc1ccc(S(=O)(=O)N2CCOCC2)cc1)c1ccc(Cl)s1 | inconclusive: 10.4 µM [inhibitor, single point] | 
O=C(c1cnn2ccccc12)N1CCc2ccccc21 | inconclusive: 18.5 µM [inhibitor, single point] | 
N#C[C@]1(S(=O)(=O)c2ccccc2)C[C@@H]2ON=C(c3cccc(Br)c3)[C@@H]2C1 | inconclusive: 5.22 µM [inhibitor, partial curve, poor fit] | 
Cc1nn(CC(=O)NCc2ccccc2)c(=O)c2cccn12 |  | inactive: 59.2%
COC(=O)c1ccccc1NC(=S)N1CCN(C2CCCCC2)CC1 | inconclusive: 0.828 µM [inhibitor, full curve, poor fit] | 
CCN(CC)c1ccc(C2C(C(=O)Nc3ccccn3)=C(C)NC3=C2C(=O)CC(C)(C)C3)cc1 (stereo not given) |  | inactive: -1.73%
CCOc1ccc(N2CC(=O)N/C2=N\c2nc(C)cc(C)n2)cc1 |  | inactive: 5% [at 5.75 µM]
Cc1cccc(C)c1NC(=O)C(=O)NCCc1c[nH]c2ccccc12 | inconclusive: 20.8 µM [inhibitor, partial curve, poor fit] | 
Cc1ccccc1NC(=O)C(C)OC(=O)C1CC(=O)N(Cc2ccco2)C1 (stereo not given) |  | inactive: -17.8%
N#C/C(=C\c1cn(CCOc2ccccc2)c2ccccc12)C(=O)NCc1cccs1 | inconclusive: 9.28 µM [inhibitor, partial curve] | 
Clc1cc2cccnc2c2ccccc12 |  | inactive: 1.15%
CCC(=O)N1CCc2cc(Br)cc(S(=O)(=O)N3CCC(C(=O)NCCCOC(C)C)CC3)c21 | inconclusive: 10.4 µM [inhibitor, single point] | 
COc1ccc(-c2nn(-c3ccccc3)cc2C(=O)NC2CCCCC2C)cc1 (stereo not given) | inconclusive: 16.5 µM [inhibitor, single point] | 
CCOc1ccc(C2C(C(=O)O)CCC(=O)N2C2CCCCC2)cc1 (stereo not given) |  | inactive: 1.91%
CC1CC(=O)Nc2cc([N+](=O)[O-])ccc2N1 (stereo not given) |  | inactive: -0.549%
c1ccc2nc3c(nc2c1)[nH]c1ccccc13 |  | inactive: 2.18%
C=CCN1C(=O)C(=O)N(CC(=O)c2ccc3c(c2)CCCC3)C1=O |  | inactive: 45.6%
Nc1nc(SCCN2C(=O)c3ccccc3C2=O)n[nH]1 |  | inactive: -9.4%

SMILES | Potency | activity change, negative = inhibition
CCc1n[nH]c(=S)n1/N=C/c1ccc(N(CC)CC)cc1 | inconclusive: 2.08 µM [inhibitor, single point] | 
COc1ccccc1C(=O)NCc1ccncc1 |  | inactive: -19.8%
CCN(CC)CCNC(=S)N1CCn2c(nc3ccccc32)C1 | inconclusive: 11.7 µM [inhibitor, partial curve, poor fit] | 
COc1ccc(NC(=O)C2CCCN(S(=O)(=O)c3ccccc3)C2)c(OC)c1 (stereo not given) | inconclusive: 18.5 µM [inhibitor, single point] | 
Cc1nc2cc(C(=O)N3c4ccccc4CC3C)ccc2s1 (stereo not given) | inconclusive: 13.1 µM [inhibitor, single point] | 
CC(C)C[C@H](CO)Nc1nc(Nc2cccc(Cl)c2)c2ncn(C(C)C)c2n1 | inconclusive: 13.1 µM [inhibitor, single point] | 
COc1cc2c(C(=O)Nc3ccccc3F)cn(C)c(=O)c2cc1OC | active: 8.28 µM | 
CCC1(C)Cc2c(sc3nnn(CC(=O)Nc4ccccc4C)c(=O)c23)CO1 (stereo not given) | inconclusive: 9.28 µM [inhibitor, single point] | 
c1ccc2oc(SCc3nc4ccccc4s3)nc2c1 |  | inactive: 189%
Cn1nc(-c2ccc(Cl)cc2)cc1NC(=O)CCCC(=O)O |  | inactive: 26.1%
O=C(c1ccccc1)N1CCN(c2ccc(NCc3ccc4c(c3)OCO4)cc2)CC1 | inconclusive: 13.1 µM [inhibitor, single point] | 
COc1ccccc1C(=O)n1nc(-c2cccnc2)nc1N | inconclusive: 18.5 µM [inhibitor, single point] | 
COc1cc([N+](=O)[O-])cc(/C=N/NC(=O)c2cccnc2)c1O | inconclusive: 1.31 µM [inhibitor, single point] | 
COc1cccc(C(=O)Oc2cccc(N3C(=O)C4C5CC(C(Br)C5Br)C4C3=O)c2)c1 (stereo not given) | inconclusive: 0.37 µM [inhibitor, partial curve, poor fit] | 
O=S(=O)(NCC1CCCO1)c1ccccc1F (stereo not given) |  | inactive: 16%
O=C(/C=C/c1ccc(F)cc1)N1CCCc2ccccc21 | inconclusive: 0.586 µM [inhibitor, full curve, poor fit] | 
COc1ccc(C(O)P(=O)(OC2CCCCC2)c2ccc(N(C)C)cc2)cc1OC (stereo not given) | inconclusive: 18.5 µM [inhibitor, single point] | 
Cn1c(=O)c2c(nc(NCCO)n2CCc2ccccc2)n(C)c1=O | active: 10.4 µM | 
CC1(c2ccc(Cl)cc2)NC(=O)N(CC(=O)c2ccc3c(c2)OCO3)C1=O (stereo not given) |  | inactive: 43.1%
S=c1[nH]nc(-c2cccc(Cl)c2)n1/N=C/c1ccc(-c2ccccc2Br)o1 | inconclusive: 13.1 µM [inhibitor, partial curve, poor fit] | 
O=C(Nc1ccc(F)cc1)Nc1ccc(N2CCCC2)c(S(=O)(=O)Nc2ccccc2Cl)c1 | active: 4.65 µM | 
CC(C)[C@H](NC(=O)N1CCn2c1nc1ccccc12)C(=O)NC1CCCCC1 | inconclusive: 18.5 µM [inhibitor, single point] | 
Cc1ccc2c(c1)N(CC(=O)NCc1ccco1)C(=O)C(C(C)C)O2 (stereo not given) | inconclusive: 14.7 µM [inhibitor, single point] | 
CCn1c(CCNC(=O)c2ccccc2Cl)n[nH]c1=S | inconclusive: 0.0023 µM [inhibitor, full curve, poor fit] | 

Exported in markdown: part of the list above

| SMILES | Potency | activity change, negative = inhibition |
| --- | --- | --- |
| CCC(=O)N1CCc2cc(Br)cc(S(=O)(=O)N3CCC(C(=O)NCCCOC(C)C)CC3)c21 | inconclusive: 10.4 µM [inhibitor, single point] |  |
| COc1ccc(-c2nn(-c3ccccc3)cc2C(=O)NC2CCCCC2C)cc1 (stereo not given) | inconclusive: 16.5 µM [inhibitor, single point] |  |
| CCOc1ccc(C2C(C(=O)O)CCC(=O)N2C2CCCCC2)cc1 (stereo not given) |  | inactive: 1.91% |
| CC1CC(=O)Nc2cc([N+](=O)[O-])ccc2N1 (stereo not given) |  | inactive: -0.549% |
| c1ccc2nc3c(nc2c1)[nH]c1ccccc13 |  | inactive: 2.18% |
| C=CCN1C(=O)C(=O)N(CC(=O)c2ccc3c(c2)CCCC3)C1=O |  | inactive: 45.6% |
| Nc1nc(SCCN2C(=O)c3ccccc3C2=O)n[nH]1 |  | inactive: -9.4% |
| CCc1n[nH]c(=S)n1/N=C/c1ccc(N(CC)CC)cc1 | inconclusive: 2.08 µM [inhibitor, single point] |  |
| COc1ccccc1C(=O)NCc1ccncc1 |  | inactive: -19.8% |
| CCN(CC)CCNC(=S)N1CCn2c(nc3ccccc32)C1 | inconclusive: 11.7 µM [inhibitor, partial curve, poor fit] |  |
| COc1ccc(NC(=O)C2CCCN(S(=O)(=O)c3ccccc3)C2)c(OC)c1 (stereo not given) | inconclusive: 18.5 µM [inhibitor, single point] |  |
| Cc1nc2cc(C(=O)N3c4ccccc4CC3C)ccc2s1 (stereo not given) | inconclusive: 13.1 µM [inhibitor, single point] |  |
| CC(C)C[C@H](CO)Nc1nc(Nc2cccc(Cl)c2)c2ncn(C(C)C)c2n1 | inconclusive: 13.1 µM [inhibitor, single point] |  |

Further results.

SMILES | Potency | activity change, negative = inhibition
CCOC(=O)c1ccc(NC(=O)N2CCN(C(=O)c3ccco3)CC2)cc1 | inconclusive: 10.4 µM [inhibitor, single point] | 
O=[N+]([O-])c1ccc(N2CCNCC2)cc1Sc1nc2ccccc2[nH]1 | inconclusive: 16.5 µM [inhibitor, single point] | 
COC(=O)C1CCCN1C(=O)C1CCCN1C(=O)CNC(=O)OCc1ccccc1 (stereo not drawn) (Cbz-Gly-Pro-Pro-OMe; configuration not given here) | inconclusive: 0.262 µM [inhibitor, full curve] | 
COc1cc(OC)c(C(=O)NC2CCCc3ccccc32)cc1OC (stereo not given) | inconclusive: 10.4 µM [inhibitor, partial curve] | 
CC(NC(=O)Cn1cc(C(F)(F)F)ccc1=O)c1ccc(F)cc1 (stereo not given) | inconclusive: 5.86 µM [inhibitor, single point] | 
COc1cc(CNn2c(C)n[nH]c2=S)cc(Br)c1OCc1ccc(F)cc1 | inconclusive: 10.4 µM [inhibitor, single point] | 
Cc1ccc(C(=O)/C=C/C(=O)c2ccc(C)cc2)cc1 |  | inactive: -3%
COc1ccccc1N(C)S(=O)(=O)c1ccc(C(=O)OCC(=O)c2c[nH]c3ccccc23)cc1 | inconclusive: 10.4 µM [inhibitor, single point] | 
COc1ccc(-c2ccc(-c3noc(-c4ccco4)n3)c(OC)n2)cc1 |  | inactive: -9.79%
C=CCOC(=O)/C(=C\c1ccccc1)NC(=O)c1ccc(C)cc1 |  | inactive: -4.59%
CCS(=O)(=O)N1CCN(CC(=O)NC2CCCCC2)CC1 |  | inactive: -16.9%
COC(=O)/C(C#N)=C/c1c(N2CCN(c3ccccc3)CC2)nc2ccccn2c1=O | inconclusive: 16.5 µM [inhibitor, single point] | 
Cc1nc(NC2=NCN(Cc3cccnc3)CN2)nc2ccccc12 | inconclusive: 16.5 µM [inhibitor, single point] | 
COC(=O)c1cc2sccc2n1CC(=O)Nc1ccc(OC)c(OC)c1OC |  | inactive: 20%
Cc1cc(N(CC(=O)NC(C)C)S(C)(=O)=O)ccc1Br | inconclusive: 9.28 µM [inhibitor, single point] | 
CC1(C(=O)OCC(=O)Nc2ncc(Cl)cc2Cl)CC1(Cl)Cl (stereo not given) |  | inactive: -1.88%
S=C(NC1CCCC1)NC1CCCC1 | inconclusive: 0.415 µM [inhibitor, full curve, poor fit] | 
Cc1ccccc1N(CC(=O)NC1CCCC1)C(=O)C1(C)CC(=O)N=C2C=CC=CN21 (stereo not given) | inconclusive: 0.0738 µM [inhibitor, full curve, poor fit] | 
COc1ccc(C(CNC(=O)C(C)c2ccc3cc(OC)ccc3c2)N(C)C)cc1 (stereo not given) | inconclusive: 5.86 µM [inhibitor, partial curve] | 
CCOc1ccccc1CNC(=O)Cn1ccc2cc(S(=O)(=O)N3CCCC3)ccc21 | active: 13.1 µM | 
COCCn1cnc2c1c(=O)n(Cc1c(F)cccc1Cl)c(=O)n2Cc1ccccc1 | inconclusive: 11.7 µM [inhibitor, single point] | 
COc1cc(C(=O)N/N=C/c2ccc(OC(=O)c3cccc(C)c3)c(OC)c2)ccc1O | inconclusive: 18.5 µM [inhibitor, single point] | 
